# Measurements reported in PubChem BioAssay AID1347076 (National Center for Advancing Translational Sciences (NCATS), 2019).
# “And” between values parts separate entries of the source, which are not always exact repeats. Equal values may be shown once. About 13,000 (3.2%) of roughly 400,000 compounds were called active. The inconclusive results got no clear call from the source; some entries with a clear call stand among them for comparison. Calls come from the whole dose curve; as a rule, active = well fitted cell-killing curve with a large enough effect; inconclusive = small, poorly fitted or top-dose-only effect, or effect the other way; inactive = flat fitted curve, though single readings scatter. A potency beside an inconclusive call is a rough fit, not a confirmed value.
# Test: qHTS assay for MDR1-selective chemotherapeutics: Primary screen using the drug-selected MDR subline cells KB-V1; note: nearly all actives have a fitted effect of over 60% in size
# Details: KB-V1 MDR cells viability, CellTiter-Glo, 72 h; activity change, negative = cytotoxicity: at 46.1 µM (top of the series)
# In short: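 KB-V1 MDR subline cells in DMEM (phenol-red free, 10% FBS) exposed to compounds in qHTS concentration series for 72 h at 37 degrees C. Viability read by CellTiter-Glo luminescence; concentration-effect curves fitted after normalization and correction.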
# % is set by controls: 0 for no effect and ±100 for the full control effect; potency is the fitted concentration of half-maximal effect.
Structure (SMILES),Potency,"activity change, negative = cytotoxicity"
COC(=O)[C@@H](Cc1ccccc1)N(Cc1ccccc1)S(=O)(=O)N(Cc1ccccc1)[C@H](Cc1ccccc1)C(=O)OC,"inconclusive: 18.4 µM [cytotoxic, single point] and inconclusive: 7.31 µM [cytotoxic, partial curve, poor fit]",–
COc1ccccc1NC(=O)Cc1ccc(-c2ccccc2)cc1,"inconclusive: 25.9 µM [cytotoxic, single point]",–
CC(C)(C)n1nc(-c2ccc(Cl)cc2)c2c(N)ncnc21,active: 18.4 µM and active: 20.6 µM,–
CCN(CC)CC#CCC(O)(c1ccccc1)C1CCCCC1 (configuration not stated),"inconclusive: 29.1 µM [cytotoxic, single point]",–
CCn1nc2cc(C(=O)NCC34CC5CC(CC(C5)C3)C4)ccc2c1OC,"inconclusive: 13 µM [rising, partial curve]",–
O=C(COC(=O)c1ccc(CN2CCCC2=O)cc1)Nc1ccc(F)cc1,"inconclusive: 10.3 µM [rising, partial curve]",–
CC(C)Oc1cc(F)ccc1-c1cc(C(=O)NCC2CCCCC2)[nH]n1,–,inactive: -0.0902%
CCN(Cc1ccncc1)C(=S)Nc1ccc(Cl)cc1,"inconclusive: 1.46 µM [cytotoxic, full curve]",–
COCCn1c(=NC(=O)c2ccc(S(=O)(=O)N3CCc4ccccc4C3)cc2)sc2cc(S(N)(=O)=O)ccc21,–,inactive: 22.3%
O=C(CSc1n[nH]c(=O)n1CCc1ccccc1)NC1CCCC1,–,inactive: 3.19%
CCCCC[C@H](C)N1C[C@@H](COCc2ccccc2)Oc2cc(N3CCC[C@H]3CO)ccc2S1(=O)=O,"inconclusive: 14.6 µM [cytotoxic, single point]",–
CCCN(Cc1cc2ccc(C)cc2[nH]c1=O)S(=O)(=O)c1ccccc1,"inconclusive: 25.9 µM [cytotoxic, single point]",–
Cc1ccc(NC(=O)c2cc(S(=O)(=O)N3CCCc4ccccc43)ccc2F)cc1F,–,inactive: 0%
Oc1ccc(/C=N/Nc2nccnc2Cl)cc1,"inconclusive: 13 µM [cytotoxic, partial curve, poor fit]",–
O=C(CSc1nnc2ccccn12)NCc1ccc2c(c1)OCO2,"inconclusive: 11.6 µM [rising, partial curve, poor fit]",–
COc1cc(-c2nc(S(=O)(=O)c3ccccc3)c(N3CCOCC3)o2)cc(OC)c1OC,–,inactive: -34.5%
N#Cc1nc(COc2ccc(-c3ccccc3)cc2)oc1NCCCN1CCOCC1,–,inactive: -9.46%
COc1cccc(Nc2nc(NCCO)c3ccccc3n2)c1,"inconclusive: 14.6 µM [cytotoxic, partial curve]",–
CCCc1nc2ccccc2c(C(=O)OCC(=O)NCc2ccco2)c1CC,active: 5.8 µM,–
Cc1ccc(S(=O)(=O)N2CCOCC2)cc1C(=O)OCC(=O)NC1CCCC(C)C1C (configuration not stated),"inconclusive: 29.1 µM [cytotoxic, single point]",–
Cc1cccc(NC(=S)NC2CC3CCCC(C2)N3CC(C)C)c1C (configuration not stated),active: 20.6 µM,–
Cc1ccc(N2CC(C(=O)Nc3cccc(C(=O)NC4CC4)c3)CC2=O)cc1 (configuration not stated),"inconclusive: 20.6 µM [rising, single point]",–
CCOC(=O)c1c(C)[nH]c(C(=O)OCC(=O)Nc2sccc2C(N)=O)c1C,"inconclusive: 9.2 µM [cytotoxic, partial curve, poor fit]",–

Structure (SMILES),Potency,"activity change, negative = cytotoxicity"
Cc1c(Cl)cnc(NC(=O)COC(=O)C2CC3CCCC(C2)C3=O)c1Cl (configuration not stated),"inconclusive: 29.1 µM [rising, single point]",–
COc1ccccc1CNc1nc(NC(C)C)nc2ccsc12,active: 10.3 µM,–
COc1ccc(NC(=O)CN(C)C(=O)c2oc3c(ccc4ccccc43)c2C)cc1,–,inconclusive: -13.1%
CNCCCOc1ccc(C)cc1OC,–,inactive: -3.16%
CCOC(=O)c1ccc(CC2S/C(=C(\C#N)C(C)=O)NC2=O)cc1 (configuration not stated),–,inactive: -5.48%
COC(=O)c1cc(-c2c(C)oc3cc(OC)ccc3c2=O)c(C)o1,active: 18.4 µM,–
COc1ccccc1N/N=C/c1c(CO)cnc(C)c1O,"inconclusive: 29.1 µM [cytotoxic, single point]",–
COc1cc([N+](=O)[O-])cc(/C=N/NC(=O)Cn2cncn2)c1O,"inconclusive: 20.6 µM [cytotoxic, single point]",–
O=C(/C=C/c1ccccc1)c1ccc(NC2=NCCCS2)cc1,active: 20.6 µM,–
O=C(c1ccco1)N1CCC(n2nnc3ccccc32)CC1,active: 13 µM,–
COc1ccc(Nc2nnc(SCC(=O)/C=C3/N(C)c4ccccc4C3(C)C)s2)cc1,active: 2.59 µM,–
COC(=O)c1ccc(CSc2ccccc2NC(=S)Nc2cccc(SC)c2)o1,"inconclusive: 20.6 µM [cytotoxic, single point]",–
NC(=O)c1ccc(NC(=O)COC(=O)C2(c3cccc(F)c3)CCCC2)cc1,–,inactive: -30%
CCNC(=O)C1(C)CCCN1C(=O)c1c(F)cccc1F (configuration not stated),–,inactive: -13.3%
CC(=O)N1C(c2ccccc2)CC(=O)OC1c1ccc2c(c1)OCO2 (configuration not stated),"inconclusive: 10.3 µM [rising, partial curve, poor fit]",–
COC(=O)c1ccc(C(=O)OC)c(NC(=O)N2CC3CCCN3c3ccccc32)c1 (configuration not stated),–,inactive: 3.21%
Cc1ccc(C(=O)NC(=S)Nc2ccc(N3CCOCC3)cc2)cc1C,"inconclusive: 20.6 µM [cytotoxic, single point]",–
O=C(CSc1nnc(Cc2csc(Nc3cccc(Cl)c3)n2)o1)N1CCc2ccccc21,"inconclusive: 18.4 µM [cytotoxic, single point]",inconclusive: 10.3%
COc1ccc(Cl)cc1C(=O)NNC(=O)c1[nH]c(C)c(C(C)=O)c1C,"inconclusive: 6.51 µM [cytotoxic, full curve]",–
C=CCn1c(SCC(=O)NC2CC2)nc2ccccc2c1=O,"inconclusive: 23.1 µM [cytotoxic, single point]",–
CCOc1ccc(N(Cc2nnc3n2CCCCC3)C(=O)Nc2cccc(C)c2)cc1,–,inactive: -0.0241%
Cc1ccc(Cl)cc1N1CCN(C(=O)c2cc3c(=O)n(C)c4ccccc4c3s2)CC1,–,inactive: 0%
CNC(=S)N/N=C/c1cn(Cc2c(F)cccc2Cl)c2ccccc12,"inconclusive: 20.6 µM [cytotoxic, single point]",–
